Laboratory results reported in patent US8101754B2, “Triazole compounds suitable for treating disorders that respond to modulation of the dopamine D3 receptor” (Abbott GmbH & Co. KG, priority 2004, dated 2012).
Some of these results come from one statement about several compounds together.

Sequences of proteins named here, by UniProt entry; tags and fusion partners are left off. A change or cut given only in a name is not applied to a line headed by its entry.
UniProt P14416, whole entry: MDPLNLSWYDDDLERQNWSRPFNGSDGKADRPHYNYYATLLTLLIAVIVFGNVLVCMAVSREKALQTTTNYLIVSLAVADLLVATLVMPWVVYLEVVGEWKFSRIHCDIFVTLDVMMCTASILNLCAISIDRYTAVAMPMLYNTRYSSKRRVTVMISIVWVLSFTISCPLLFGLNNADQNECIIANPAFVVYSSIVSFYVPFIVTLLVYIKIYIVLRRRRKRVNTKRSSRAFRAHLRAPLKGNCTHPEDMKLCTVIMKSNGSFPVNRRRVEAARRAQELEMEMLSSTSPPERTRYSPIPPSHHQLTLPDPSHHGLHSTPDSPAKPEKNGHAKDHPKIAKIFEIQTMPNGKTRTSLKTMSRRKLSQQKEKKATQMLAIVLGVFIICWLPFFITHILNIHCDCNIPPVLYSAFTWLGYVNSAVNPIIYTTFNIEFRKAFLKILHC

Molecular target: T1, human dopamine D2L receptors (long isoform) (Homo sapiens, UniProt P14416)
T1 construct: expressed in transfected cells; membranes)
Experiment: Dopamine D2L receptor binding ([125I] iodospiperone), basis of selectivity Ki(D2)/Ki(D3)
Details: compounds II
Procedure: The substance to be tested was either dissolved in methanol/Chremophor® (BASF-AG) or in dimethyl sulfoxide and then diluted with water to the desired concentration. […] Each assay mixture was run in triplicate. The incubation buffer contained 50 mM tris, 120 mM NaCl, 5 mM KCl, 2 mM CaCl2, 2 mM MgCl2 and 0.1% bovine serum albumin. The buffer was adjusted to pH 7.4 with HCl. Measurement and Analysis: After having been incubated at 25° C. for 60 minutes, the assay mixtures were filtered through a Wathman GF/B glass fiber filter under vacuum using a cell collecting device. The filters were transferred to scintillation viols using a filter transfer system. After 4 ml of Ultima Gold® (Packard) have been added, the samples were shaken for one hour and the radioactivity was then counted in a Beta-Counter (Packard, Tricarb 2000 or 2200CA). The cpm values were converted into dpm using a standard quench series and the program belonging to the instrument. The inhibition curves were analyzed by means of iterative nonlinear regression analysis using the Statistical Analysis System (SAS) which is similar to the “LIGAND” program described by Munson and Rodbard.

Compound	selectivities [Ki(D2)/Ki(D3)]
Cn1c(SCCCN2CCN(c3cc(C(F)(F)F)nc(C(C)(C)C)n3)CC2)nnc1C1CCCC1.O=C(O)C(F)(F)F [c.3, 2-tert-Butyl-4-{4-[3-(4-methyl-5-cyclopentyl-4H-[1,2,4]triazol-3-ylsulfanyl)-propyl]-piperazin-1-yl}-6-trifluoromethyl-pyrimidine trifluoroacetate]	exceeding 50
COCc1nnc(SCCCN2CCN(c3cc(C(F)F)nc(C(C)(C)C)n3)CC2)n1C.Cl [c.4, 2-tert-Butyl-4-{4-[3-(4-methyl-5-methoxymethyl-4H-[1,2,4]triazol-3-ylsulfanyl)-propyl]-piperazin-1-yl}-6-difluoromethyl-pyrimidine hydrochloride]	exceeding 50
Cl.Cn1c(SCCCN2CCN(c3cc(C(F)F)nc(C(C)(C)C)n3)CC2)nnc1C(F)(F)F [c.6, 2-tert-Butyl-4-{4-[3-(4-methyl-5-trifluoromethyl-4H-[1,2,4]triazol-3-ylsulfanyl)-propyl]-piperazin-1-yl}-6-difluoromethyl-pyrimidine hydrochloride]	exceeding 50
Cl.Cn1c(SCCCN2CCN(c3cc(C(F)F)nc(C(C)(C)C)n3)CC2)nnc1C(C)(C)C [c.7, 2-tert-Butyl-4-{4-[3-(4-methyl-5-tert-butyl-4H-[1,2,4]triazol-3-ylsulfanyl)-propyl]-piperazin-1-yl}-6-difluoromethyl-pyrimidine hydrochloride]	exceeding 50
CCCc1cc(N2CCN(CCCSc3nnc(COC)n3C)CC2)nc(C(C)(C)C)n1.Cl [c.12, 2-tert-Butyl-4-{4-[3-(4-methyl-5-methoxymethyl-4H-[1,2,4]triazol-3-ylsulfanyl)-propyl]-piperazin-1-yl}-6-propyl-pyrimidine hydrochloride]	exceeding 50
CCc1nnc(SCCCN2CCN(c3cc(C(F)(F)F)nc(C(C)(C)C)n3)CC2)n1C.Cl [c.15, 2-tert-Butyl-4-{4-[3-(4-methyl-5-ethyl-4H-[1,2,4]triazol-3-ylsulfanyl)-propyl]-piperazin-1-yl}-6-trifluoromethyl-pyrimidine hydrochloride]	exceeding 50
COCc1nnc(SCCCN2CCN(c3cc(C(F)(F)F)nc(C(C)(C)C)n3)CC2)n1C.Cl [c.16, 2-tert-Butyl-4-{4-[3-(4-methyl-5-methoxymethyl-4H-[1,2,4]triazol-3-ylsulfanyl)-propyl]-piperazin-1-yl}-6-trifluoromethyl-pyrimidine hydrochloride]	exceeding 50
Cl.Cn1c(SCCCN2CCN(c3cc(C(F)(F)F)nc(C(C)(C)C)n3)CC2)nnc1C1CC1 [c.17, 2-tert-Butyl-4-{4-[3-(4-methyl-5-cyclopropyl-4H-[1,2,4]triazol-3-ylsulfanyl)-propyl]-piperazin-1-yl}-6-trifluoromethyl-pyrimidine hydrochloride]	exceeding 50
CC(=O)O.Cn1c(SCCCN2CCN(c3cc(C(F)(F)F)nc(C(C)(C)C)n3)CC2)nnc1C1CCC1 [c.18, 2-tert-Butyl-4-{4-[3-(4-methyl-5-cyclobutyl-4H-[1,2,4]triazol-3-ylsulfanyl)-propyl]-piperazin-1-yl}-6-trifluoromethyl-pyrimidine acetate]	exceeding 50
Cl.Cn1c(SCCCN2CCN(c3cc(C(F)F)nc(C(C)(C)C)n3)CC2)nnc1C1CCC1 [c.20, 2-tert-Butyl-4-{4-[3-(4-methyl-5-cyclobutyl-4H-[1,2,4]triazol-3-ylsulfanyl)-propyl]-piperazin-1-yl}-6-difluoromethyl-pyrimidine hydrochloride]	exceeding 50
Cl.Cn1c(SCCCN2CCN(c3cc(C(F)F)nc(C(C)(C)C)n3)CC2)nnc1C1CC1 [c.21, 2-tert-Butyl-4-{4-[3-(4-methyl-5-cyclopropyl-4H-[1,2,4]triazol-3-ylsulfanyl)-propyl]-piperazin-1-yl}-6-difluoromethyl-pyrimidine hydrochloride]	exceeding 50
Cn1c(SCCCN2CCN(c3cc(C(F)(F)F)nc(C(C)(C)C)n3)CC2)nnc1C(C)(C)C [c.27, 2-tert-Butyl-4-{4-[3-(4-methyl-5-tert-butyl-4H-[1,2,4]triazol-3-ylsulfanyl)-propyl]-piperazin-1-yl}-6-trifluoromethyl-pyrimidine]	exceeding 50
CCc1cc(N2CCN(CCCSc3nnc(C(F)(F)F)n3C)CC2)nc(C(C)(C)C)n1.Cl [c.28, 2-tert-Butyl-4-{4-[3-(4-methyl-5-trifluoromethyl-4H-[1,2,4]triazol-3-ylsulfanyl)-propyl]-piperazin-1-yl}-6-ethyl-pyrimidine hydrochloride]	exceeding 50
CCc1nnc(SCCCN2CCN(c3cc(C(F)F)nc(C(C)(C)C)n3)CC2)n1C.Cl [c.29, 2-tert-Butyl-4-{4-[3-(4-methyl-5-ethyl-4H-[1,2,4]triazol-3-ylsulfanyl)-propyl]-piperazin-1-yl}-6-difluoromethyl-pyrimidine hydrochloride]	exceeding 50

Tested on: not listed separately
Experiment: Concentration of compounds in plasma and brain following oral dosing
Assay type: in vivo, Sprague-Dawley rats
Details: text b468; method IV.2, rats, 10 mg/kg orally
Procedure: 2. Determination of the Concentration of Compounds in Plasma and Brain Following Dosing of Compounds in Animals
Male Sprague-Dawley rats were used in this study (2 to 4 per experiment). The animals were fasted overnight prior to dosing and throughout the duration of the study but were permitted water ad libitum.
Each rat received a 10 mg/kg (5 mL/kg) dose orally by gavage. At 0.5, 3 and 8 hours after drug administration, three animals were put under deep anesthesia using isoflurane and euthanized by bleeding (cardiac puncture) under deep isoflurane anesthesia. EDTA blood samples and brain tissue will be collected from each rat. Upon collection, the samples were promptly placed in an ice bath, and within 2 hours after sample collection, the blood was centrifuged at about 4° C. The resulting brain and plasma samples were placed in clean glass tubes and stored in a freezer until analysis.
The plasma samples were assayed for parent compound using appropriate liquid chromatography—mass spectrometry procedures. The results for compounds I are given in tables 2, and illustrate the high brain concentrations attainable with the compounds of the invention.

Compound	brain levels
Cl.Cn1c(SCCCN2CCN(c3cc(C(C)(C)C)nc(C(C)(C)C)n3)CC2)nnc1C1CC1 [c.9, 2-tert-Butyl-4-{4-[3-(4-methyl-5-cyclopropyl-4H-[1,2,4]triazol-3-ylsulfanyl)-propyl]-piperazin-1-yl}-6-tert-butyl-pyrimidine hydrochloride]	exceed 200 ng/g
COCc1nnc(SCCCN2CCN(c3cc(C(F)(F)F)nc(C(C)(C)C)n3)CC2)n1C.Cl [c.16, 2-tert-Butyl-4-{4-[3-(4-methyl-5-methoxymethyl-4H-[1,2,4]triazol-3-ylsulfanyl)-propyl]-piperazin-1-yl}-6-trifluoromethyl-pyrimidine hydrochloride]	exceed 200 ng/g
Cl.Cn1c(SCCCN2CCN(c3cc(C(F)(F)F)nc(C(C)(C)C)n3)CC2)nnc1C1CC1 [c.17, 2-tert-Butyl-4-{4-[3-(4-methyl-5-cyclopropyl-4H-[1,2,4]triazol-3-ylsulfanyl)-propyl]-piperazin-1-yl}-6-trifluoromethyl-pyrimidine hydrochloride]	exceed 200 ng/g
CCc1cc(N2CCN(CCCSc3nnc(C4CC4)n3C)CC2)nc(C(C)(C)C)n1.Cl [c.19, 2-tert-Butyl-4-{4-[3-(4-methyl-5-cyclopropyl-4H-[1,2,4]triazol-3-ylsulfanyl)-propyl]-piperazin-1-yl}-6-ethyl-pyrimidine hydrochloride]	exceed 200 ng/g
